# The other results are listed elsewhere or left out. These are further read-outs of the screen, such as a control signal, another cell line or another target. No call is given for them. Compounds called inactive in the main read-out are mostly missing here. Words in brackets tell the shape of the fitted curve; partial curves, single points and poor fits give uncertain potencies.
# Experiment: qHTS Assay for Modulators of Lamin A Splicing
# Settings: HeLa LMNA splicing GFP/RFP minigene ratio, 48 h
# Outline: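 Read-out is the ratio of GFP to DsRed2 object intensity, acquired by 488 nm laser-scanning cytometry on HeLa lamin A-EGFP minigene reporter cells. Compound incubation 48 hrs at 37 °C in Opti-MEM with 2% FBS; DMSO 0.5% final.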
# [1] = measured here: GFP splicing reporter channel
# [2] = measured here: RFP viability control channel
SMILES,AC50 [1],AC50 [2]
CCOC(=O)c1cc(-c2ccc(F)cc2)n(CCC(=O)Nc2nc3ccc(OC)cc3s2)c1C,"5.62 µM [falling, single point]","5.62 µM [falling, single point]"
N#Cc1c(-c2ccccc2Cl)cc(-c2ccccc2)nc1Br,"22.4 µM [rising, single point]","35.5 µM [rising, single point]"
Cn1c(=O)oc2cc(S(=O)(=O)CCC(=O)NCCc3ccc(Cl)cc3)ccc21,–,"12.6 µM [rising, partial curve]"
COCCN1C(=O)CS/C1=C(/C#N)C(=O)NCc1ccco1,–,"28.2 µM [rising, single point]"
CCC(=O)Nc1cccc(C(=O)/C=C/c2cccs2)c1,"3.98 µM [falling, partial curve]","20 µM [falling, single point]"
O=C(Nc1nccs1)c1ccc(CSc2nnnn2-c2ccccc2)cc1,–,"31.6 µM [rising, single point]"
Nc1cccc2cnccc12,"0.631 µM [falling, full curve, poor fit]","0.794 µM [falling, full curve]"
Nc1ccc(N2CCCCC2)cc1N1CCCCC1,"15.8 µM [rising, partial curve]","17.8 µM [rising, partial curve]"
Cc1nn(-c2ccccc2)c(C)c1/C=N/NC(=O)c1cc(-c2ccc(Cl)s2)[nH]n1,"7.08 µM [falling, partial curve]","7.94 µM [falling, partial curve]"
Cc1cccc(Oc2nc3ccccn3c(=O)c2/C=C(\C#N)C(=O)NC2CCS(=O)(=O)C2)c1 (stereo not drawn),–,"20 µM [rising, single point]"
COc1cc(OC)c(NS(=O)(=O)c2ccc(Cl)c(C(=O)OC(C)C(=O)N3CCCC3)c2)cc1Cl (stereo not drawn),"8.91 µM [rising, partial curve, poor fit]","12.6 µM [rising, partial curve]"
FC(F)(F)c1ccccc1-c1nc(NCc2cccs2)c2ccccc2n1,"25.1 µM [falling, single point]","25.1 µM [falling, single point]"
O=c1c2ccccc2nc(SCc2nc(-c3ccccc3)no2)n1-c1ccc(F)cc1,–,"22.4 µM [rising, single point]"
Fc1ccc(Nc2nc(-c3ccoc3)nc3ccccc23)cc1,"14.1 µM [falling, partial curve, poor fit]","14.1 µM [falling, partial curve, poor fit]"
CCOc1ccccc1NC(=O)Nc1cccc(S(N)(=O)=O)c1,"28.2 µM [falling, single point]","35.5 µM [falling, single point]"
Cc1oc2ncn(C)c(=O)c2c1C(=O)NCc1ccc(Cl)cc1,"0.126 µM [rising, full curve, poor fit]",–
COc1ccc(-c2nc(Cn3c(SCc4cccc(C(F)(F)F)c4)nc4cccnc43)c(C)o2)cc1OC,"0.02 µM [falling, full curve, poor fit]",–
Cc1cccc(NC(=O)CSc2nnc(CNC(=O)c3ccc(S(=O)(=O)N(C)C)cc3)n2-c2ccccc2)c1,–,"20 µM [rising, single point]"
CCCNCC1C(Oc2ccc(Cl)cc2)C(=O)N1c1ccccc1C (stereo not drawn),–,"35.5 µM [rising, single point]"

# Not a retest: 16 of the compounds above.
SMILES,AC50 [1],AC50 [2]
Cn1c(=O)oc2cc(S(=O)(=O)CCC(=O)NCCc3ccc(Cl)cc3)ccc21,–,"12.6 µM [rising, partial curve]"
COCCN1C(=O)CS/C1=C(/C#N)C(=O)NCc1ccco1,–,"28.2 µM [rising, single point]"
CCC(=O)Nc1cccc(C(=O)/C=C/c2cccs2)c1,"3.98 µM [falling, partial curve]","20 µM [falling, single point]"
O=C(Nc1nccs1)c1ccc(CSc2nnnn2-c2ccccc2)cc1,–,"31.6 µM [rising, single point]"
Nc1cccc2cnccc12,"0.631 µM [falling, full curve, poor fit]","0.794 µM [falling, full curve]"
Nc1ccc(N2CCCCC2)cc1N1CCCCC1,"15.8 µM [rising, partial curve]","17.8 µM [rising, partial curve]"
Cc1nn(-c2ccccc2)c(C)c1/C=N/NC(=O)c1cc(-c2ccc(Cl)s2)[nH]n1,"7.08 µM [falling, partial curve]","7.94 µM [falling, partial curve]"
Cc1cccc(Oc2nc3ccccn3c(=O)c2/C=C(\C#N)C(=O)NC2CCS(=O)(=O)C2)c1 (stereo not drawn),–,"20 µM [rising, single point]"
COc1cc(OC)c(NS(=O)(=O)c2ccc(Cl)c(C(=O)OC(C)C(=O)N3CCCC3)c2)cc1Cl (stereo not drawn),"8.91 µM [rising, partial curve, poor fit]","12.6 µM [rising, partial curve]"
FC(F)(F)c1ccccc1-c1nc(NCc2cccs2)c2ccccc2n1,"25.1 µM [falling, single point]","25.1 µM [falling, single point]"
O=c1c2ccccc2nc(SCc2nc(-c3ccccc3)no2)n1-c1ccc(F)cc1,–,"22.4 µM [rising, single point]"
Fc1ccc(Nc2nc(-c3ccoc3)nc3ccccc23)cc1,"14.1 µM [falling, partial curve, poor fit]","14.1 µM [falling, partial curve, poor fit]"
CCOc1ccccc1NC(=O)Nc1cccc(S(N)(=O)=O)c1,"28.2 µM [falling, single point]","35.5 µM [falling, single point]"
Cc1oc2ncn(C)c(=O)c2c1C(=O)NCc1ccc(Cl)cc1,"0.126 µM [rising, full curve, poor fit]",–
COc1ccc(-c2nc(Cn3c(SCc4cccc(C(F)(F)F)c4)nc4cccnc43)c(C)o2)cc1OC,"0.02 µM [falling, full curve, poor fit]",–
Cc1cccc(NC(=O)CSc2nnc(CNC(=O)c3ccc(S(=O)(=O)N(C)C)cc3)n2-c2ccccc2)c1,–,"20 µM [rising, single point]"

# Remaining list, next part.

SMILES,AC50 [1],AC50 [2]
COc1cc2c3nnc(-c4ccc(F)cc4)c-3cn(Cc3ccccc3)c2cc1OC,–,"35.5 µM [falling, single point]"
CCN(CC)c1ccc(C(=O)NCc2ccc3c(c2)CCN3C(=O)c2ccc(F)cc2)cc1,–,"11.2 µM [rising, single point]"
Cc1cc(N2CCCC2)nc2c(C)cccc12,"0.0891 µM [falling, full curve, poor fit]",–
COc1cccc(OCc2nc3ncc(Br)cc3[nH]2)c1,–,"4.47 µM [rising, partial curve, poor fit]"
COc1ccc(C(=O)NNc2ncnc3c2cnn3-c2cccc(Cl)c2)cc1OC,"35.5 µM [falling, single point]","35.5 µM [falling, partial curve]"
COc1ccc(C2=NOC(C(=O)NCc3ccco3)C2)cc1 (stereo not drawn),–,"3.55 µM [rising, full curve, poor fit]"
Cc1cs/c(=N\N=C\c2ccccc2)n1Cc1ccco1,"20 µM [rising, single point]","35.5 µM [rising, single point]"
O[Si](CCCN1CCCCC1)(c1ccc(F)cc1)C1CCCCC1 (stereo not drawn),"15.8 µM [falling, single point]","20 µM [falling, single point]"
COc1ccc(Cl)cc1CNCCSc1nnnn1-c1ccccc1,"0.00708 µM [rising, full curve, poor fit]","0.00891 µM [rising, full curve, poor fit]"
COc1ccc(S(=O)(=O)N2CCC(C(=O)NCc3ccccc3)CC2)cc1OC,"0.891 µM [rising, partial curve, poor fit]",–
CC(C)C(c1nnnn1C1CCCC1)N1CCC(C(N)=O)CC1 (stereo not drawn),–,"35.5 µM [falling, single point]"
COc1ccc(CNC(=O)C(=O)NCC(c2ccco2)N2CCOCC2)cc1 (stereo not drawn),"11.2 µM [falling, partial curve]","10 µM [falling, partial curve]"
COc1cc(C(=O)Nc2ccc3c(c2)N(C2CCCC2)C(=O)c2ccccc2S3)cc(OC)c1OC,"8.91 µM [falling, partial curve, poor fit]",–
CC(C)Oc1ccc(C(=O)NCC(c2ccc(N(C)C)cc2)N2CCCC2)cc1 (stereo not drawn),"7.08 µM [falling, partial curve, poor fit]",–
COc1ccc(CCNC(=O)c2nc(-c3cccs3)no2)cc1OC,–,"22.4 µM [rising, single point]"
CCC(SC1=NCCS1)C(=O)Nc1nnc(-c2ccccc2OC)s1 (stereo not drawn),–,"12.6 µM [rising, partial curve]"
Cc1ccc(NS(=O)(=O)c2cc(-c3cnc(C4CC4)o3)ccc2C)cc1Cl,"12.6 µM [falling, partial curve, poor fit]","3.55 µM [rising, single point]"
COC(=O)c1cc(CSc2nnc(NC3CCCCC3)s2)oc1C,–,"22.4 µM [rising, single point]"
CCCCNC(=O)c1cc(-c2ccc(OC)cc2)nc2n[nH]c(-c3cccc([N+](=O)[O-])c3)c12,–,"0.316 µM [falling, partial curve, poor fit]"

SMILES,AC50 [1],AC50 [2]
CNC(=S)NNC(=O)Cc1ccc(O)cc1,"3.55 µM [rising, partial curve]","0.891 µM [rising, full curve, poor fit]"
COc1ccc(NC(=O)COc2ncnc3ccccc23)cc1S(=O)(=O)N1CCOCC1,"0.0794 µM [falling, full curve, poor fit]","0.126 µM [falling, full curve]"
Nc1nc(NCc2ccco2)nc(N2CCCCC2)c1[N+](=O)[O-],"5.62 µM [rising, partial curve]","1.58 µM [rising, partial curve, poor fit]"
Cc1ccc2c(c1)cc(C(=O)Nc1ccc(F)cc1F)n2C,–,"5.62 µM [rising, full curve]"
CCCCCC(=O)N(O)C1CC(=O)N(c2ccccc2)C1=O (stereo not drawn),–,"11.2 µM [rising, partial curve]"
O=C(Cc1cc(=O)[nH][nH]1)N/N=C/c1c(F)cccc1Cl,–,"5.62 µM [falling, single point]"
CCCCNC(=S)N/N=C/C1=CCC2CC1C2(C)C (stereo not drawn),"11.2 µM [rising, single point]","22.4 µM [rising, single point]"
O=C(CSc1nc2ccccc2[nH]1)Nc1ccc(F)c(F)c1,–,"12.6 µM [rising, single point]"
COc1ccccc1/C=C/C=N\N1CCN(Cc2ccccc2Cl)CC1,–,"12.6 µM [rising, partial curve]"
CC1CCN(c2ccccc2NC(=S)NC(=O)c2cccs2)CC1,"14.1 µM [falling, single point]","12.6 µM [falling, partial curve]"
COc1ccc(NC(=O)/C(C#N)=C/C=C/c2ccco2)cc1,–,"2.51 µM [rising, partial curve, poor fit]"
O=C1/C(=C/c2ccc3c(c2)OCO3)CCC/C1=C\c1ccc2c(c1)OCO2,"35.5 µM [falling, single point]","35.5 µM [falling, single point]"
CCOC(=O)C(NC(=O)c1ccccc1)=C1CCCCC1,"31.6 µM [rising, single point]",–
Cc1nn(C)c(C)c1S(=O)(=O)N1CCCC(C(=O)N2CCN(c3ccc(Cl)cc3)CC2)C1 (stereo not drawn),–,"15.8 µM [rising, partial curve]"
COc1ccc(C(=O)N2CCN=C2SC)cc1OC,–,"0.794 µM [falling, full curve, poor fit]"
CC1=C(C#N)CCC(=O)N1Cc1c(F)cccc1Cl,"0.0562 µM [falling, full curve]",–
CCNC(=O)c1cnc2sc(N3CCCCCC3)nn2c1=O,–,"0.224 µM [falling, full curve]"
COC(=O)c1c(C)sc(-c2c(-c3ccc4c(c3)OCCO4)[nH]c3c2c(=O)n(C)c(=O)n3C)c1O,"4.47 µM [falling, partial curve]",–

# Reference: PubChem BioAssay AID1487 (National Center for Advancing Translational Sciences (NCATS), 2009)
